From paper PMC3527430 (PLoS ONE, 2012)
Square brackets hold non-standard residues; d marks the D form. * marks the point of attachment. Cbz = O=C(OCc1ccccc1)*; Aib = CC(C)(N)C(=O)O; OtBu = CC(C)(C)O*

Assay: general procedure: solution-phase peptide synthesis; EDC/HOAt with NMM; PyBOP for some segment condensations
Conditions: coupling step

Substance | step yield [%]
Cbz-Pro14-Val15-Aib16-Aib17-Glu(OMe)18-Glu(OMe)19-Phaol20-N3-Boc (Cbz-C^3D^2-Phaol-N6-Boc) | 79
Cbz-A’BC^3-OtBu | 41
Cbz-E(OMe)[Aib]V[Aib]GL[Aib]-OtBu | 85
Cbz-Aib5-Ala6-Glu(OMe)7-Aib8-Val9-Aib10-Gly11-Leu12-Aib13-Pro14-Val15-Aib16-Aib17-Glu(OMe)18-Glu(OMe)19-Phaol20-N6-Boc (Cbz-BC^3D^2-Phaol-N6-Boc) | 27
Cbz-[Aib]GL[Aib]-OtBu | 86
Cbz-V[Aib]GL[Aib]-OtBu | 86
Cbz-[Aib]V[Aib]GL[Aib]-OtBu | 77
Cbz-CD-Phe-ethanolamine-TBDMS | 55
Ac-Aib1-Pro2-Aib3-Ala4-Aib5-OtBu | 53
Cbz-B-OtBu | 85
Ac-Aib1-Pro2-Aib3-Ala4-Aib5-Ala6-Glu(OMe)7-Aib8-Val9-Aib10-Gly11-Leu12-Aib13-Pro14-Val15-Aib16-Aib17-Glu(OMe)18-Glu(OMe)19-Phaol20-N6-Boc (ABC^3D^2-N6-Boc) | 33
Cbz-C^3-OtBu | 88
Cbz-P[Aib]A[Aib]-OtBu | 85

Same assay, conditions: coupling step; run 1

Substance | step yield [%]
Cbz-A'B-OtBu | 86

Same assay, conditions: coupling step; run 2

Substance | step yield [%]
Cbz-A'B-OtBu | 89

Same assay, conditions: late stage modification step

Substance | step yield [%]
Ac-Aib1-Pro2-Aib3-Ala4-Aib5-Ala6-Glu(OMe)7-Aib8-Val9-Aib10-Gly11-Leu12-Aib13-Pro14-Val15-Aib16-Aib17-Glu(OMe)18-Glu(OMe)19-Alaol20-Boc (ABCD-Alaol-Boc) | 11
